Data from patent US9458195B2 (Ipsen Pharma S.A.S., priority 2005, dated 2016).
Bridges are numbered along the chain shown (N, C = ends). Where no end group is shown, it is not given here. [ ]: non-standard residue; d: D form. 2Nal = N[C@@H](Cc1ccc2ccccc2c1)C(=O)O; d2Nal = N[C@H](Cc1ccc2ccccc2c1)C(=O)O; Cha = N[C@@H](CC1CCCCC1)C(=O)O; Pen = CC(C)(S)[C@H](N)C(=O)O; Nle = CCCC[C@H](N)C(=O)O; GABA = NCCCC(=O)O

Experiment: general procedure: Fmoc solid-phase peptide synthesis; Rink Amide MBHA resin (0.58 mmol/g); MBHA resin (0.91 mmol/g) for Boc; Wang resin for C-terminal acids; DIC/HOBt, double-coupling with HBTU/HOBt/DIEA; HBTU/DIEA (Boc)
Conditions: whole synthesis, analytical HPLC, scale of the general procedure 0.035 mmol, 0.20 mmol (Boc)

Row | Substance | final HPLC purity | purity (crude or final not stated)
1 | Ac-Nle-c(Cys-D-Ala-His-D-Phe-Arg-Trp-Cys)-NH2 | approximately 88% | –
2 | Ac-Arg-c(Cys-D-Ala-His-D-2-Nal-Arg-Trp-Cys)-NH2 | – | 99.9%

Experiment: peptide synthesis
Conditions: whole synthesis

Row | Substance | purity (crude or final not stated) | final HPLC purity | isolated yield
3 | Ac-β-hMet-c(Asp-His-D-Phe-Arg-Trp-Gaba-Lys)-NH2 | 89% | – | –
4 | Ac-Nip-c(Asp-His-D-Phe-Arg-Trp-Gaba-Lys)-NH2 | 98.9% | – | –
5 | n-Butyryl-Cha-c(Asp-His-D-Phe-Arg-Trp-Gaba-Lys)-NH2 | 88.6% | – | –
6 | Ac-VCH[dF]RW[GABA]C-NH2 (disulfide 2-8) | 95.4% | – | –
7 | Ac-[Nle]CHFR[dW][GABA]C-NH2 (disulfide 2-8) | 95.8% | – | –
8 | Ac-RCH[dF]RW[GABA][Pen]-NH2 (disulfide 2-8) | 99% | – | –
9 | Ac-A6c-c(Asp-His-D-Phe-Arg-Trp-Gaba-Lys)-NH2 | 93% | – | –
10 | Ac-LCH[dF]RW[GABA]C-NH2 (disulfide 2-8) | 96.7% | – | –
11 | Ac-Nle-c(Cys-3-Pal-D-Phe-Arg-Trp-Gaba-Cys)-NH2 | 96.6% | – | –
12 | [dF]CH[dF]RW[GABA][dC]T-NH2 (disulfide 2-8) | 99% | – | –
13 | Ac-Cha-c(Asp-His-D-Phe-Arg-Trp-Gaba-Lys)-NH2 | – | 94.5% | 8.9%
14 | Ac-hPhe-c(Asp-His-D-Phe-Arg-Trp-Gaba-Lys)-NH2 | 70% | – | –
15 | Ac-[dR]CH[dF]RW[GABA][Pen]-NH2 (disulfide 2-8) | 99.9% | – | –
16 | Ac-Nle-c(Cys-Gaba-His-D-Phe-Arg-Trp-D-Cys)-NH2 | 93% | – | –
17 | Ac-[Nle][Pen]H[dF]RW[GABA]C-NH2 (disulfide 2-8) | 95% | – | –
18 | Ac-D-Cha-c(Asp-His-D-Phe-Arg-Trp-Gaba-Lys)-NH2 | 99% | – | –
19 | Ac-[Nle]CH[dF]RW[GABA][Pen]-NH2 (disulfide 2-8) | 99.9% | – | –
20 | Ac-Nle-c(D-Cys-Gaba-His-D-Phe-Arg-Trp-D-Cys)-NH2 | 90% | – | –
21 | Ac-D-hCha-c(Asp-His-D-Phe-Arg-Trp-Gaba-Lys)-NH2 | 94% | – | –

Row | Substance | purity (crude or final not stated) | final HPLC purity | isolated yield
22 | Ac-Nle-c(Asp-His-D-Phe-Arg-Trp-Gaba-Lys)-NH2 | 91.5% | – | –
23 | Ac-D-2-Nal-c(Asp-His-D-Phe-Arg-Trp-Gaba-Lys)-NH2 | 92.6% | – | –
24 | FCH[dF]RW[GABA]C-NH2 (disulfide 2-8) | 95.8% | – | –
25 | Ac-Oic-c(Asp-His-D-Phe-Arg-Trp-Gaba-Lys)-NH2 | 97.5% | – | –
26 | Ac-[Nle]CH[d2Nal]RW[GABA]C-NH2 (disulfide 2-8) | 99.99% | – | –
27 | Ac-Nle-c(D-Cys-Gaba-His-D-Phe-Arg-Trp-Cys)-NH2 | 94% | – | –
28 | Ac-D-Phe-c(Asp-His-D-Phe-Arg-Trp-Gaba-Lys)-NH2 | 96.5% | – | –
29 | Ac-hCha-c(Asp-His-D-Phe-Arg-Trp-Gaba-Lys)-NH2 | 99% | – | –
30 | Ac-Nle-c(Cys-His-D-Phe-Arg-D-Trp-Gaba-Cys)-NH2 | 97% | – | –
31 | Ac-Cha-c(Asp-His-D-2-Nal-Arg-Trp-Gaba-Lys)-NH2 | 100% | – | –
32 | Ac-[Nle][Pen]H[dF]RW[GABA][Pen]-NH2 (disulfide 2-8) | 99.9% | – | –
33 | Ac-Chg-c(Asp-His-D-Phe-Arg-Trp-Gaba-Lys)-NH2 | 99% | – | –
34 | Ac-FDH[dF]RW[GABA]K-NH2 (lactam 2-8) | 96.9% | – | –
35 | Ac-hLeu-c(Asp-His-D-Phe-Arg-Trp-Gaba-Lys)-NH2 | 99% | – | –
36 | Ac-[2Nal]CH[dF]RW[GABA]C-NH2 (disulfide 2-8) | 95.2% | – | –
37 | Ac-Nle-c(Asp-His-D-Phe-Arg-D-Trp-Gaba-Lys)-NH2 | 99% | – | –
38 | [Nle]CH[dF]RW[GABA]C-NH2 (disulfide 2-8) | 97.6% | – | –
39 | Ac-[Cha]CH[dF]RW[GABA]C-NH2 (disulfide 2-8) | 95.8% | – | –

Experiment: general procedure: Fmoc solid-phase peptide synthesis; Rink Amide MBHA resin (0.58 mmol/g); Wang resin for C-terminal OH; MBHA resin (0.91 mmol/g) for Boc chemistry; DIC/HOBt, double-coupling with HBTU/HOBt/DIEA; HBTU/DIEA (Boc)
Conditions: whole synthesis, scale of the general procedure 0.035 mmol, 0.20 mmol

Row | Substance | purity (crude or final not stated)
40 | Ac-Nle-c(Cys-D-Ala-His-D-Phe-Arg-Trp-Cys)-NH2 | 98.3%

Experiment: Fmoc solid-phase peptide synthesis; Rink Amide MBHA; DIC/HOBt, double-coupling with HBTU/HOBt/DIEA; HBTU/DIEA (Boc)
Conditions: whole synthesis, scale 0.035 mmol

Row | Substance | isolated mass | isolated yield
41 | Ac-Nle-c(Cys-D-Ala-His-D-Phe-Arg-Trp-Cys)-NH2 | 10.3 mg | 27% yield
